Measurements published in article PMC8683493.
No constants are given. Whether binding was seen depends on the method and setting. Binding seen in cells or lysates may run through a third protein. Binding can be weak; no strength is given. Tags and fused reporters may be left off the sequences shown.

T1: NmrA^FLAG (Aspergillus nidulans) (UniProt Q5AU62)
T1 sequence: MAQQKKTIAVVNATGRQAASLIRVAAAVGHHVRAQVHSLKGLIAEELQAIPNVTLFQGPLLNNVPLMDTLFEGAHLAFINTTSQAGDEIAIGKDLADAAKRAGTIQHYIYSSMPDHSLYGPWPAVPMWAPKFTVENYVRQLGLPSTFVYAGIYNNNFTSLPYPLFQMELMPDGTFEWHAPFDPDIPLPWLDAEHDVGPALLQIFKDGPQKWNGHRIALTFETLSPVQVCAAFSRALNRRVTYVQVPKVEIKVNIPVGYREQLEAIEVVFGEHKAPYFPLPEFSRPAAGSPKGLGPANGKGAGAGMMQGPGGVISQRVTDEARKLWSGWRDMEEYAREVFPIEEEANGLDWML


Assays:
[1] = molecular target: T1, NmrA^FLAG (Aspergillus nidulans); assay: co-IP; reciprocal: lysate of A. nidulans mycelia co-expressing NmrA^FLAG and PnmB^HA, precipitated with anti-FLAG or anti-HA antibody and protein A beads, 4 °C; IP buffer 250 mM NaCl, 100 mM Tris-HCl pH 7.5, 10% glycerol, 1 mM EDTA, 0.1% NP-40; with protease inhibitors including benzamidine; western blot
[2] = molecular target: PnmB^HA (Aspergillus nidulans); assay: as above

Row | Molecule | binding [1] | binding [2]
1 | PnmB^HA (Aspergillus nidulans) (enzyme) | binds | –
2 | NmrA^FLAG (protein, UniProt Q5AU62 1-352) MAQQKKTIAVVNATGRQAASLIRVAAAVGHHVRAQVHSLKGLIAEELQAIPNVTLFQGPLLNNVPLMDTLFEGAHLAFINTTSQAGDEIAIGKDLADAAKRAGTIQHYIYSSMPDHSLYGPWPAVPMWAPKFTVENYVRQLGLPSTFVYAGIYNNNFTSLPYPLFQMELMPDGTFEWHAPFDPDIPLPWLDAEHDVGPALLQIFKDGPQKWNGHRIALTFETLSPVQVCAAFSRALNRRVTYVQVPKVEIKVNIPVGYREQLEAIEVVFGEHKAPYFPLPEFSRPAAGSPKGLGPANGKGAGAGMMQGPGGVISQRVTDEARKLWSGWRDMEEYAREVFPIEEEANGLDWML | – | binds
